Measured values published in PMC3558320.
No constants are given. Whether binding was seen depends on the method and setting. Binding seen in cells or lysates may run through a third protein. Tags and fused reporters may be left off the sequences shown.

Chains of the proteins cited; added tags and fusions are not shown.
UniProt O08934: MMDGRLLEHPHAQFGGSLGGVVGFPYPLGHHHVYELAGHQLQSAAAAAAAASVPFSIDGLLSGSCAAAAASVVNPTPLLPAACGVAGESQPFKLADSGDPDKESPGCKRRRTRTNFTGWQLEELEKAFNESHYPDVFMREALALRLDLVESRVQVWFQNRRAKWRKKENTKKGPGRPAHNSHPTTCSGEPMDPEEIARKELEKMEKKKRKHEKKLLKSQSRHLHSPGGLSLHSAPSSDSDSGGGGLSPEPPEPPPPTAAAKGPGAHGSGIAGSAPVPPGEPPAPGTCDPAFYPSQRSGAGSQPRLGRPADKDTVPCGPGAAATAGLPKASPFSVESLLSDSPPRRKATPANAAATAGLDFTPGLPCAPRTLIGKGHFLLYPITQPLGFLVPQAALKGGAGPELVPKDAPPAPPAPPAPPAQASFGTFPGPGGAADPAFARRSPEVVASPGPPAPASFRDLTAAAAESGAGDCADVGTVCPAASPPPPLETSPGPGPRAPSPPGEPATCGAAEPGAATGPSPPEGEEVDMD

Target: T1, Ngn2-FLAG (mouse) (UniProt P70447)
T1 sequence: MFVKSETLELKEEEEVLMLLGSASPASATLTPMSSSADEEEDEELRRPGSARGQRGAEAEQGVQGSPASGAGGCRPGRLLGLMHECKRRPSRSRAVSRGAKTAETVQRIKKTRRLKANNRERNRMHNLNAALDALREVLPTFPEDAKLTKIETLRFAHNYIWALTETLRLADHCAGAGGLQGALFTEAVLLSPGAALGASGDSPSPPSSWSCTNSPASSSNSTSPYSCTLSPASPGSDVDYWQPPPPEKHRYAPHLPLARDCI
Assay: co-IP; Hela cells co-transfected with Uncx4.1-c-myc and Ngn2-FLAG, MG132 20 μm, harvested 24 hours after transfection; Co-IP with FLAG tagged beads; western blot with anti-c-myc and anti-FLAG

binding: no binding
Substance: Uncx4.1-c-myc (from UniProt O08934 1-530)
